Experimental data reported in the supplement of paper PMC9578143, “Small-Molecule Ebselen Binds to YTHDF Proteins Interfering with the Recognition of N^6-Methyladenosine-Modified RNAs” (ACS Pharmacology & Translational Science, 2022).
The other results are listed elsewhere or left out. Part of the spread comes from offsets between plates or batches.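 Hits were defined as a z-score below −3.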 Residues, ends and D or L forms follow the SMILES beside them.

These compounds were tested against T1, YTHDF1 YTH domain (aa 365-554) (UniProt Q9BYJ9) (assay: tryptophan fluorescence intensity z-score (mean); higher = higher fluorescence, less quenching (negative = binding / quenching)). Conditions: 10 µM.
T1 sequence (whole entry): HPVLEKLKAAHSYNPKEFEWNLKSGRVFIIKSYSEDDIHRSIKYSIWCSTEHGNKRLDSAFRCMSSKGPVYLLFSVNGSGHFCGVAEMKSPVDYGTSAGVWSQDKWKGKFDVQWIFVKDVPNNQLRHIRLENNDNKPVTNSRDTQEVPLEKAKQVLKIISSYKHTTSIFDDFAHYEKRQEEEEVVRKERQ

Compound | tryptophan fluorescence intensity z-score
CN(C)C(=N)NC(=N)N (plate: M 11-12) | inactive: -0.584
CC(=O)OC/C=C(\C)CC/C=C(\C)CC/C=C(\C)CC/C=C(\C)CC/C=C(\C)CC/C=C(\C)CC/C=C(\C)CC/C=C(\C)CCC=C(C)C (plate: M 19-20) | inactive: 0.27
CC(=O)O[C@]1(C(C)=O)CC[C@H]2[C@@H]3C=C(Cl)C4=CC(=O)CC[C@]4(C)[C@H]3CC[C@@]21C (plate: M 9-10) | inactive: -0.63
CCN(CC)C(C)CN1c2ccccc2Sc2ccccc21 (centres undefined) (plate: M 3-4) | inactive: -0.46
CCCNC(=O)NS(=O)(=O)c1ccc(Cl)cc1 (plate: M 1-2) | inactive: 0.175
CC1(C)CC2C1CC[C@]1(C)CCC3C(C(=O)O)CC(=O)O[C@@]32C1 (some centres undefined) [3-HYDROXY-4-(SUCCIN-2-YL)-CARYOLANEdelta-LACTONE] (plate: M 17-18) | inactive: 0.269
CO[C@H]1/C=C/O[C@@]2(C)Oc3c(C)c(O)c4c(O)c(c5c(nc6cc(C)ccn65)c4c3C2=O)NC(=O)/C(C)=C\C=C\[C@H](C)[C@H](O)[C@@H](C)[C@@H](O)[C@@H](C)[C@H](OC(C)=O)[C@@H]1C (plate: M 9-10) | inactive: -0.812
Clc1cccc(Cl)c1NC1=NCCN1 (plate: M 1-2) | inactive: 0.352
N=C(N)NCCCCNC(=N)N (plate: M 21-22) | inactive: 0.471
COC(=O)Nc1nc2cc(Sc3ccccc3)ccc2[nH]1 (plate: M 7-8) | inactive: 0.0463
CN1CCN(CC(=O)N2c3ccccc3C(=O)Nc3cccnc32)CC1 (plate: M 7-8) | inactive: 0.218
Oc1cc2c(cc1O)C(c1ccccc1)CNCC2 (centres undefined) (plate: M 23-24) | inactive: 0.364
CC(C)NCC(O)COc1ccc(CC(N)=O)cc1 (centres undefined) (plate: M 7-8) | inactive: 0.528
NC(Cn1ccc(=O)c(O)c1)C(=O)O (centres undefined) (plate: M 17-18) | inactive: 0.879
CCC1(c2ccccc2)C(=O)NCNC1=O (plate: M 5-6) | inactive: 0.401
N#Cc1ccc2c(c1)N(CCCN1CCC(O)CC1)c1ccccc1S2 (plate: M 21-22) | inactive: 0.112
CN(C)CCC(c1ccc(Br)cc1)c1ccccn1 (centres undefined) (plate: M 9-10) | inactive: -0.482
c1ccc(-c2ccc(C(c3ccccc3)n3ccnc3)cc2)cc1 (centres undefined) (plate: M 9-10) | inactive: -0.112
Oc1c(Cl)cc(Cl)c2cccnc12 (plate: M 7-8) | inactive: -0.312
O=c1[nH]cnc2nc[nH]c12 (plate: M 17-18) | inactive: 0.446
C[C@@](Cc1ccc(O)c(O)c1)(NN)C(=O)O (plate: M 13-14) | inactive: 0.622
Nc1ncnc2c1ncn2[C@@H]1O[C@H](CO)[C@@H](O)[C@@H]1O (plate: M 5-6) | inactive: -0.1
OC[C@@H](O)[C@@H](O[C@@H]1O[C@H](CO)[C@@H](O)[C@H](O)[C@H]1O)[C@H](O)[C@@H](O)CO (plate: M 19-20) | inactive: 0.293

Entries above with nitrogen in an aromatic ring (9):
Compound | tryptophan fluorescence intensity z-score
CO[C@H]1/C=C/O[C@@]2(C)Oc3c(C)c(O)c4c(O)c(c5c(nc6cc(C)ccn65)c4c3C2=O)NC(=O)/C(C)=C\C=C\[C@H](C)[C@H](O)[C@@H](C)[C@@H](O)[C@@H](C)[C@H](OC(C)=O)[C@@H]1C (plate: M 9-10) | inactive: -0.812
COC(=O)Nc1nc2cc(Sc3ccccc3)ccc2[nH]1 (plate: M 7-8) | inactive: 0.0463
CN1CCN(CC(=O)N2c3ccccc3C(=O)Nc3cccnc32)CC1 (plate: M 7-8) | inactive: 0.218
NC(Cn1ccc(=O)c(O)c1)C(=O)O (centres undefined) (plate: M 17-18) | inactive: 0.879
CN(C)CCC(c1ccc(Br)cc1)c1ccccn1 (centres undefined) (plate: M 9-10) | inactive: -0.482
c1ccc(-c2ccc(C(c3ccccc3)n3ccnc3)cc2)cc1 (centres undefined) (plate: M 9-10) | inactive: -0.112
Oc1c(Cl)cc(Cl)c2cccnc12 (plate: M 7-8) | inactive: -0.312
O=c1[nH]cnc2nc[nH]c12 (plate: M 17-18) | inactive: 0.446
Nc1ncnc2c1ncn2[C@@H]1O[C@H](CO)[C@@H](O)[C@@H]1O (plate: M 5-6) | inactive: -0.1

Structures above with an NH in an aromatic ring:
Compound | tryptophan fluorescence intensity z-score
COC(=O)Nc1nc2cc(Sc3ccccc3)ccc2[nH]1 (plate: M 7-8) | inactive: 0.0463
O=c1[nH]cnc2nc[nH]c12 (plate: M 17-18) | inactive: 0.446

Additional records follow.

Compound | tryptophan fluorescence intensity z-score
COc1cc(O)c2c(=O)cc(C)oc2c1CC=C(C)C (plate: M 13-14) | inactive: -0.0137
COC1=CC(=O)C(O)=C/C1=C\C=C\c1ccccc1 (plate: M 15-16) | inactive: -0.241
CC(=O)Nc1c(I)cc(I)c(C(=O)O)c1I (plate: M 9-10) | inactive: 0.282
CC(=O)O[C@]1(C)CC[C@@]23C[C@H]1C(C)(C)[C@@H]2CC[C@H]3C (plate: M 17-18) | inactive: 0.0193
Cc1cc2cc3c(C)cc(=O)oc3c(C)c2o1 (plate: M 5-6) | inactive: -0.187
CC(=O)Nc1nnc(S(N)(=O)=O)s1 (plate: M 1-2) | inactive: 0.168
CO/N=C(\C(=O)N[C@@H]1C(=O)N2C(C(=O)O)=C(COC(C)=O)CS[C@H]12)c1csc(N)n1 (plate: M 1-2) | inactive: 0.443
COC(=O)c1c(OC)cc2c(c1C)Oc1c(Cl)c(O)c(Cl)c(C)c1C(=O)O2 (plate: M 15-16) | inactive: -0.289
COc1cc(CNC(=O)CCCC/C=C/C(C)C)ccc1O (plate: M 7-8) | inactive: -0.149
COC(=O)[C@H](Cc1ccccc1)NC(=O)[C@@H](N)CC(=O)O (plate: M 9-10) (H-Asp-Phe-OMe) | inactive: 0.21
O=C(/C=C/c1ccc(O)c(O)c1)O[C@H](Cc1ccc(O)c(O)c1)C(=O)O (plate: M 23-24) | inactive: -0.292
CCOC(=O)C(Cc1ccc(O)cc1)NC(C)=O (centres undefined) (plate: M 23-24) | inactive: 0.48
CN[C@H]1CC[C@@H](c2ccc(Cl)c(Cl)c2)c2ccccc21 (plate: M 9-10) | inactive: -0.697
C[C@@H]1CCC[C@H](C)N1NC(=O)c1ccc(Cl)c(S(N)(=O)=O)c1 (plate: M 9-10) | inactive: -0.0917
Cc1ccc(-c2cc(C(F)(F)F)nn2-c2ccc(S(N)(=O)=O)cc2)cc1 (plate: M 9-10) | inactive: -0.183
O=C1c2ccccc2C(=O)c2c(O)c(O)cc(O)c21 (plate: M 19-20) | inactive: 0.336
CC(C)[N+]1(C)[C@@H]2CC[C@H]1C[C@@H](OC(=O)C(CO)c1ccccc1)C2 (some centres undefined) (plate: M 3-4) | inactive: 0.111
COc1cc2ccc(=O)oc2c(O)c1O (plate: M 19-20) | inactive: -0.235
COC(=O)C(O)c1ccccc1 (centres undefined) (plate: M 15-16) | inactive: 0.106
Nc1ccc(S(=O)(=O)Nc2nccs2)cc1 (plate: M 5-6) | inactive: 0.0107
CC(C)CC(NC(=O)[C@H](C)N)C(=O)O (mixture of isomers) (plate: M 23-24) | inactive: 0.535
O=C(O)C1=C(CSc2nnnn2CS(=O)(=O)O)CS[C@@H]2[C@H](NC(=O)[C@H](O)c3ccccc3)C(=O)N12 (plate: M 11-12) | inactive: 0.174
O=C(Oc1cc(O)cc2c1C[C@@H](OC(=O)c1cc(O)c(O)c(O)c1)[C@@H](c1cc(O)c(O)c(O)c1)O2)c1cc(O)c(O)c(O)c1 (plate: M 21-22) | inactive: -0.288

Compound | tryptophan fluorescence intensity z-score
CCCCCCOc1ccccc1C(N)=O (plate: M 23-24) | inactive: 1.22
O[C@H]1[C@H](O)[C@@H](O)C2OC[C@H]1O2 (plate: M 23-24) | inactive: 0.426
NC[C@H](O)c1ccc(O)c(O)c1 (plate: M 3-4) | inactive: -0.0468
CCN(CC)CCNC(=O)c1ccc(N)cc1 (plate: M 5-6) | inactive: 0.0756
CC(=O)O[C@@H]1CC(=O)[C@@]2(C)C(CC(=O)[C@]3(C)C2CC[C@@]2(C)[C@H](c4ccoc4)OC(=O)C4OC423)C1(C)C (some centres undefined) (plate: M 13-14) | inactive: 0.325
CCOC(=O)c1c(C)cc(OC)cc1O (plate: M 15-16) | inactive: 0.232
CCN(CC)CCOCCOC(=O)C1(c2ccccc2)CCCC1 (plate: M 7-8) | inactive: 0.291
Cc1cc(C(C)(C)C)cc(C)c1CC1=NCCN1 (plate: M 5-6) | inactive: -0.0754
CCN(CCCCOC(=O)c1ccc(OC)c(OC)c1)C(C)Cc1ccc(OC)cc1 (centres undefined) (plate: M 7-8) | inactive: -0.0615
CC(C)(CO)[C@@H](O)C(=O)NCCC(=O)O [PANTOTHENICACID(d)Nasalt] (plate: M 13-14) | inactive: 0.365
CC(=O)Nc1ccc(OC(=O)c2ccccc2O)cc1 (plate: M 21-22) | inactive: 0.942
COc1cc2nc(N3CCN(C(=O)C4COc5ccccc5O4)CC3)nc(N)c2cc1OC (centres undefined) (plate: M 11-12) | inactive: -0.678
O=C(O)c1cc(=O)c(O)c2c(O)c(O)c(O)cc2c1 (plate: M 21-22) | inactive: -1.09
COC(=O)C[C@H]1C2(C)CC34OC5(C)O[C@@]6([C@H](OC(C)=O)C(OC(C)=O)[C@]7(C)C(/C(=C(/O)C(C)C)C(=O)O[C@H]7c7ccoc7)[C@@]6(O5)[C@H](OC(C)=O)[C@@]3(O)C2OC(=O)C(C)C)[C@]14C (some centres undefined) (plate: M 13-14) | inactive: 0.578
COc1cc(OC)c2ccc(=O)oc2c1 (plate: M 17-18) | inactive: 0.017
Cc1cc(O)c2c(c1O)C(=O)c1c(O)cc(C)c(O)c1C2=O (plate: M 15-16) | inactive: 0.646
CCCCC1C(=O)N(c2ccccc2)N(c2ccc(O)cc2)C1=O (centres undefined) (plate: M 3-4) | inactive: 0.07
COc1ccc(-c2oc3cc(OC)c(OC)c(OC)c3c(=O)c2OC)cc1OC (plate: M 19-20) | inactive: 0.254
CCOC(=O)Nc1nc2ccccc2[nH]1 (plate: M 11-12) | inactive: 0.463
NC[C@H]1O[C@H](O[C@H]2[C@H](O)[C@@H](O[C@H]3O[C@H](CO)[C@@H](O)[C@H](N)[C@H]3O)[C@H](N)C[C@@H]2N)[C@H](N)C[C@@H]1O (plate: M 5-6) | inactive: -0.0219
C[C@@H]1C/C=C/C=C/C=C/C=C/[C@H](O[C@@H]2O[C@H](C)[C@@H](O)[C@H](N)[C@@H]2O)C[C@@H]2O[C@](O)(C[C@@H](O)C[C@H]3O[C@@H]3/C=C/C(=O)O1)C[C@H](O)[C@H]2C(=O)O (plate: M 11-12) | inactive: -0.403
O=C(O)C1=CC(=C(c2ccc(O)c(C(=O)O)c2)c2ccc(O)c(C(=O)O)c2)C=CC1=O (plate: M 23-24) | active: -3.01
CN(C(=O)CN(CCO)CC(=O)N(C)C(C)(C)Cc1ccccc1)C(C)(C)Cc1ccccc1 (plate: M 9-10) | inactive: -0.482
